Assay results reported in paper PMC10509265.
No constants are given. Whether binding was seen depends on the method and setting. Binding seen in cells or lysates may run through a third protein. Some results given as binding are weak or reduced against the parent protein; the word gives no strength.

Protein sequences, listed by entry. Tags and fused reporters are not part of them. Lines headed by an entry give the natural chain unless they say otherwise; changes in a name come on top. Chains listed by the source or under a name are the forms on record and can include a tag or linker.
UniProt Q9Z329: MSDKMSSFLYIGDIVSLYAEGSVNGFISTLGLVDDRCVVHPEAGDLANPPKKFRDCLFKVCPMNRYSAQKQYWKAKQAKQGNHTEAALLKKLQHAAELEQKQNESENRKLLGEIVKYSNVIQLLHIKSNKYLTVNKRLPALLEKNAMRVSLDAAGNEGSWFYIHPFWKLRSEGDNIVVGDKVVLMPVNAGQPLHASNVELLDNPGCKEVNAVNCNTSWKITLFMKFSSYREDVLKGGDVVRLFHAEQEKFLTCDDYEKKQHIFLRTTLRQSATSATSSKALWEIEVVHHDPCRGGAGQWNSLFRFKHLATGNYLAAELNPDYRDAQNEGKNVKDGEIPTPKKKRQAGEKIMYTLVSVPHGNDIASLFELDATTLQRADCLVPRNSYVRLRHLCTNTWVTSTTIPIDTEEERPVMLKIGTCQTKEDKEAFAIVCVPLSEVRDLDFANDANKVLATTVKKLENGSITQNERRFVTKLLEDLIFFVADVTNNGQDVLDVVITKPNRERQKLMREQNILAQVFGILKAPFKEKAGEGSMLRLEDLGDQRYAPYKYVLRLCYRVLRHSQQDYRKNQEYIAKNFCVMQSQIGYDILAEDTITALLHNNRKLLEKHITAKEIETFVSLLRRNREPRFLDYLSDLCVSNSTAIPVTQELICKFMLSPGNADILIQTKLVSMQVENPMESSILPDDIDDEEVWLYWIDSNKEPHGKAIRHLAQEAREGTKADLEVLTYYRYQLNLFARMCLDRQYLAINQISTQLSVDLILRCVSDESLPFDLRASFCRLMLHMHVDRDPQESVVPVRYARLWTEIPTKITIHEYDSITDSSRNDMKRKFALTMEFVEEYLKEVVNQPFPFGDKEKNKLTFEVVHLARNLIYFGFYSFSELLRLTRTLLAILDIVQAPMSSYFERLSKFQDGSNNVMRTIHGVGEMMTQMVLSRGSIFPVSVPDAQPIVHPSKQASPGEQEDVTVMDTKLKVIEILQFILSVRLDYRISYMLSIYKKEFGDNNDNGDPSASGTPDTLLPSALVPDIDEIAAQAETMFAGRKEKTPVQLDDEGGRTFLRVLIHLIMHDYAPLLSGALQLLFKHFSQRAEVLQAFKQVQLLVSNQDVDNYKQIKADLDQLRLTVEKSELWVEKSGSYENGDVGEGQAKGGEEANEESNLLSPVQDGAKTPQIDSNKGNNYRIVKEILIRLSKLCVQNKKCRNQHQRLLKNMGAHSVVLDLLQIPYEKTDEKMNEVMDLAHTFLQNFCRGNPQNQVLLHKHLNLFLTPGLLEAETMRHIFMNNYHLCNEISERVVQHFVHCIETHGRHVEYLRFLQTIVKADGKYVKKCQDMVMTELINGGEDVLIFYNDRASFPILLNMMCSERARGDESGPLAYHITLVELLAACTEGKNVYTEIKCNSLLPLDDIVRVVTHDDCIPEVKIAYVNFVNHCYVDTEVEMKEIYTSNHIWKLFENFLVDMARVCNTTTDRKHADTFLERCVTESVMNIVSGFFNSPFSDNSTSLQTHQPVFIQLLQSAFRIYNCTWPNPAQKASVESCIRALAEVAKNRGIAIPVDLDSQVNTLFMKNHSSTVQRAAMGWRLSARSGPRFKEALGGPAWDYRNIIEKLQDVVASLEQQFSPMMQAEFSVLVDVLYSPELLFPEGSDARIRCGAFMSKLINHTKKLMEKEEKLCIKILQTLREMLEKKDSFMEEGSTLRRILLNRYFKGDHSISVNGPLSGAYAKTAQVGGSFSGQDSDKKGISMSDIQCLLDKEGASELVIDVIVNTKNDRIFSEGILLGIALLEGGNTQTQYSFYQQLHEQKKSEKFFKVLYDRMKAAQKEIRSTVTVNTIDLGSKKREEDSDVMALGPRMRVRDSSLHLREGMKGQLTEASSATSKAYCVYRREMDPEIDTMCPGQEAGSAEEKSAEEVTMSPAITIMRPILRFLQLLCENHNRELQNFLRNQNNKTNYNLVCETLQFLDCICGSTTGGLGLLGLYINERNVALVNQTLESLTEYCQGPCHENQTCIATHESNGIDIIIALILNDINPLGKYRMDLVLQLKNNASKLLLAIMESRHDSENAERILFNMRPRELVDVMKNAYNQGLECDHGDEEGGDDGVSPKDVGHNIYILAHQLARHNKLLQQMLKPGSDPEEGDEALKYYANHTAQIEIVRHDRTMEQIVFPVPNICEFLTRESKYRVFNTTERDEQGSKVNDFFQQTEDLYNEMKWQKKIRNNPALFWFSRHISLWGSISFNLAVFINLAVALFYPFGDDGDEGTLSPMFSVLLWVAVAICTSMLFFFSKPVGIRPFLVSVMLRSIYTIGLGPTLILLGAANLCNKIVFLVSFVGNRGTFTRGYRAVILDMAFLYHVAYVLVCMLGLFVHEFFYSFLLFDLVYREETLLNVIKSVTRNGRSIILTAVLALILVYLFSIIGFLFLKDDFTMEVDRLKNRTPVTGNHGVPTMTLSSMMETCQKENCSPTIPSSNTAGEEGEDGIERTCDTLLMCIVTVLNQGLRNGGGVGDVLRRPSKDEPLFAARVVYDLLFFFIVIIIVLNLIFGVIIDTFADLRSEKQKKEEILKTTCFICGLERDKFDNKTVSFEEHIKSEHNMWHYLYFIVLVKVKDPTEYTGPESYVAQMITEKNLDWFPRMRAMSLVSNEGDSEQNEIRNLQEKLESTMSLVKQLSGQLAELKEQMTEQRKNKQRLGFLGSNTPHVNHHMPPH
Bcl-xL S14A (endogenous, homozygous S14A knock-in mouse heart) (Q64373-1, form named): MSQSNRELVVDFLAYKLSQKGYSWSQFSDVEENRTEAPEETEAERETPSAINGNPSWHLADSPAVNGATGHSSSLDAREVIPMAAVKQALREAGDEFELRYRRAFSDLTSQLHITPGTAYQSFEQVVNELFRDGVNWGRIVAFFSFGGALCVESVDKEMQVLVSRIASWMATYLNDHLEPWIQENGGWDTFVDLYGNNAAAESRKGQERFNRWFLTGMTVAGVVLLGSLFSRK

Biological target: IP3R-type 2 (endogenous, mouse heart) (mouse (endogenous in heart)) (UniProt Q9Z329)
Assay: co-IP; anti-IP3R type 2 antibody cross-linked to protein A/G agarose; heart lysates of WT and S14A knock-in mice 1 day after TAC or sham; overnight at 4 °C; immunoblot

Bcl-xL (endogenous, wild type mouse heart) (from UniProt Q64373-1 1-233)
binding: binds

Bcl-xL S14A (endogenous, homozygous S14A knock-in mouse heart) (from UniProt Q64373-1 1-233)
binding: binds
